Experimental findings from PMC11992298 are described below.

Sequences of proteins named here, by UniProt entry; tags and fusion partners are left off.
UniProt P41164: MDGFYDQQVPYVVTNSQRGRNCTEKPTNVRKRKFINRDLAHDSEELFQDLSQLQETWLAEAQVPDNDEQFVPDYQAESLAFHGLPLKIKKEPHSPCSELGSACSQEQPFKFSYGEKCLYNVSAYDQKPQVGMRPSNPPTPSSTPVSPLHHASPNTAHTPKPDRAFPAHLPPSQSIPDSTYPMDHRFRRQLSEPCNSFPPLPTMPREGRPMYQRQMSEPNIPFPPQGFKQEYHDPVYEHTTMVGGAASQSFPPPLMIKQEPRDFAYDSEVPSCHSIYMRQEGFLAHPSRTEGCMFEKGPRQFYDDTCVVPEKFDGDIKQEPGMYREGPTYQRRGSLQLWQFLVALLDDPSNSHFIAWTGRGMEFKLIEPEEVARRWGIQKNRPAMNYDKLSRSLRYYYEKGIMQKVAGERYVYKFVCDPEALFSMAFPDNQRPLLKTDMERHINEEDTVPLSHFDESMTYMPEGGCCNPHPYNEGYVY
UniProt Q62521: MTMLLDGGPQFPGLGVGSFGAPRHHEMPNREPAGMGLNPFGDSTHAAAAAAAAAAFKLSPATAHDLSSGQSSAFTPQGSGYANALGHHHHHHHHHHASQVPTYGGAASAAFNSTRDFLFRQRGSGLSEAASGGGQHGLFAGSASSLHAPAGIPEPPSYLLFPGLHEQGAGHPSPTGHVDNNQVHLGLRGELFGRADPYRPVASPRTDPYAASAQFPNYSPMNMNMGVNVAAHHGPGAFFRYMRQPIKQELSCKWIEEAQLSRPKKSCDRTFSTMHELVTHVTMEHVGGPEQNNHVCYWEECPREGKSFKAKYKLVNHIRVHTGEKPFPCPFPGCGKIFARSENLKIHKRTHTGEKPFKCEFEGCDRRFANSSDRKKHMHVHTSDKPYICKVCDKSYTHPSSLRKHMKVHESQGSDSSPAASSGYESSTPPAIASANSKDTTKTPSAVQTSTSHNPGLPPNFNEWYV

No constants are given. Whether binding was seen depends on the method and setting. Binding seen in cells or lysates may run through a third protein. Some entries that bind do so weakly or less than the wild type.

One experiment deals with FLAG-ER81 (mouse) (UniProt P41164). The experiment is described as follows: co-IP; HEK-293T cells overexpressing FLAG-ER81 and GST-tagged ZIC3 constructs; immunoprecipitation with FLAG antibody, immunoblot with GST antibody. In general terms: In western blotting, separated proteins are transferred to a membrane and probed.
Experiment [1] concerns the target ER81, endogenous in mouse olfactory bulb (mouse (endogenous in olfactory bulb tissue)) (UniProt P41164). The experiment is described as follows: co-IP; endogenous proteins, adult mouse OB tissue lysate (20 mM Tris pH 8.0, 137 mM NaCl, 1% NP-40, 2 mM EDTA); forward: IP with ZIC3 antibody, blot ER81; reverse: IP with ER81 antibody, blot ZIC3; protein-A sepharose.
Experiment [2] concerns the target ZIC3, endogenous in mouse olfactory bulb (mouse (endogenous in olfactory bulb tissue)) (UniProt Q62521). The experiment is described as above.

As to “ZIC3-GST, full length (Zinc Finger transcription factor of the Cerebellum 3) (from UniProt Q62521 1-466)”, in the experiment with FLAG-ER81 (mouse), the binding result is given as “binds”.

On to “ZIC3, endogenous in mouse olfactory bulb (from UniProt Q62521 1-466)”, for which, in experiment [1], the binding result was “binds”. For the substance “ER81, endogenous in mouse olfactory bulb (from UniProt P41164 1-477)”, the binding entry in experiment [2] was “binds”.
